The other results are listed elsewhere or left out. Residues, ends and D or L forms follow the SMILES beside them. *: point of attachment. Cbz = O=C(OCc1ccccc1)*
Columns and labels:
Assay in all cases: log2 fold change, soluble protein after heating vs DMSO (PISA); higher = thermal stabilisation; K562 cells, 10 uM, 30 min; active = over 0.2 and 3.5 SD of the protein, either way, in both replicates (recomputed)
IRAK-1-4 Inhibitor I = compound: C1COCCN1CCN2C3=CC=CC=C3N=C2NC(=O)C4=CC(=CC=C4)[N+](=O)[O-] [IRAK-1-4 Inhibitor I]
Method in brief: (§1)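 K562 cells at 2×10^6 cells/mL were exposed to 10 μM compound for 30 min, then aliquots were heated for 3 min across 48°C-58°C, pooled, and extracted in PBS containing 0.5% NP-40 at 4°C. The supernatant after 21,000xg for 90 min was taken as soluble protein and measured by TMTpro 16plex LC-MS/MS with channel sums equalised. Thermal stability is reported relative to control samples, with values from duplicates. Fold changes are given on a log2 scale.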

The chains behind the UniProt entries cited, without tags or fusion partners. Where a name states a change or a piece, a line headed by the entry shows the natural chain unless it says otherwise.
UniProt O60234, whole entry, looked up: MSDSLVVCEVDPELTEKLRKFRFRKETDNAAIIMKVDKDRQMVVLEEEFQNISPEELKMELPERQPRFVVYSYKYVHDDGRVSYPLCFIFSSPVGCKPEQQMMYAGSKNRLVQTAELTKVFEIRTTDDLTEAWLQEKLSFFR
UniProt Q8TDQ7: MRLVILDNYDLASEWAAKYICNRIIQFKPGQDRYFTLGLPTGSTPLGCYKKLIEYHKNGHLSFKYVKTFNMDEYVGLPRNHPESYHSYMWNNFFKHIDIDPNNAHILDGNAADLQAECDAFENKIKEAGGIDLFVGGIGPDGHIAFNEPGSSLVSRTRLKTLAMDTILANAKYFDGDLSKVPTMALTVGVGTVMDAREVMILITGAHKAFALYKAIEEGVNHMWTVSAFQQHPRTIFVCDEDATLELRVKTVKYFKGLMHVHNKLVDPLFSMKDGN
UniProt Q9UBQ7: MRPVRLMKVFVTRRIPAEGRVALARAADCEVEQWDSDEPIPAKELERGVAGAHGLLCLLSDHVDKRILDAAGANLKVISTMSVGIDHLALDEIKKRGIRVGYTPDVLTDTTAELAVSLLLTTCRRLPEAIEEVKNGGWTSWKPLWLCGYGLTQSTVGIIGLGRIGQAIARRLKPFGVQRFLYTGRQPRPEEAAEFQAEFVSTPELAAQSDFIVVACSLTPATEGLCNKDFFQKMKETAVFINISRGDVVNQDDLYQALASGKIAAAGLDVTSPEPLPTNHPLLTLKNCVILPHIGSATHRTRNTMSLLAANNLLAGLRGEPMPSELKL
UniProt Q8IW92: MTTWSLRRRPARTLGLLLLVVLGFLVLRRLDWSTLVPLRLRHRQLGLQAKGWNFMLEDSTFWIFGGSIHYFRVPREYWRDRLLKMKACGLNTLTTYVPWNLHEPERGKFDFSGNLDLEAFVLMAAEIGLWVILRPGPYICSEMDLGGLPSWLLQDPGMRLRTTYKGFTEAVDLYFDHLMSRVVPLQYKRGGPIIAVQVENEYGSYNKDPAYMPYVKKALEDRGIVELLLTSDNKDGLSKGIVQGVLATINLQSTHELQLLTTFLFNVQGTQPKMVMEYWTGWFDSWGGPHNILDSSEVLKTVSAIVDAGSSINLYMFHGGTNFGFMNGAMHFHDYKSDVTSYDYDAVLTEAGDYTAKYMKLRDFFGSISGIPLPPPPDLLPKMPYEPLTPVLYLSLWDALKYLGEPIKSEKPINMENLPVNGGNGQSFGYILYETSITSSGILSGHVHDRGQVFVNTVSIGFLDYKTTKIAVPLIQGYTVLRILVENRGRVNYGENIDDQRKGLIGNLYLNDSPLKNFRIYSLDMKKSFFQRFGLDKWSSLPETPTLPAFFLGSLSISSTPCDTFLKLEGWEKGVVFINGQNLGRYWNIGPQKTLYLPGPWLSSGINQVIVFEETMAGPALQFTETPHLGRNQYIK
UniProt P62993, whole entry, looked up: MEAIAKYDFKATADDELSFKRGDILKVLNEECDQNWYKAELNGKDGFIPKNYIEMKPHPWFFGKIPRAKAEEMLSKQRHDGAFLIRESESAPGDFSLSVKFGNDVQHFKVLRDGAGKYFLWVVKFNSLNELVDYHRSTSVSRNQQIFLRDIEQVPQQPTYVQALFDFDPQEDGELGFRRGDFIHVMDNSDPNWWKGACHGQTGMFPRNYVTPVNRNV
UniProt Q9BRT9, whole entry, looked up: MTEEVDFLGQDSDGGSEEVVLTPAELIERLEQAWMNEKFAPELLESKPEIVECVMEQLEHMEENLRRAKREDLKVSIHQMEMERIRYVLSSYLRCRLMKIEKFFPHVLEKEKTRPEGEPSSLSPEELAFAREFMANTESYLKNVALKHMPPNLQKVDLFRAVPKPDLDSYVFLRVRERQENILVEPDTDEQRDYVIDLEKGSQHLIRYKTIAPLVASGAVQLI
UniProt Q9HAV0, whole entry, looked up: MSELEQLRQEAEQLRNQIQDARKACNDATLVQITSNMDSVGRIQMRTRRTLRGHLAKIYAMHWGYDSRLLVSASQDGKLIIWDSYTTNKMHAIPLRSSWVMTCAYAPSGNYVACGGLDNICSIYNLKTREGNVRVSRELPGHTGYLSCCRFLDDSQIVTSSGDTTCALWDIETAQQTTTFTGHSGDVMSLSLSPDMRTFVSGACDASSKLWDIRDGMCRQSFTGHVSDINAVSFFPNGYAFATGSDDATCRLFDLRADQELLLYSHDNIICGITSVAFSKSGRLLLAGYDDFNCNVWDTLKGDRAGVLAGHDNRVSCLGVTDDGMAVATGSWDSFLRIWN
UniProt P32189: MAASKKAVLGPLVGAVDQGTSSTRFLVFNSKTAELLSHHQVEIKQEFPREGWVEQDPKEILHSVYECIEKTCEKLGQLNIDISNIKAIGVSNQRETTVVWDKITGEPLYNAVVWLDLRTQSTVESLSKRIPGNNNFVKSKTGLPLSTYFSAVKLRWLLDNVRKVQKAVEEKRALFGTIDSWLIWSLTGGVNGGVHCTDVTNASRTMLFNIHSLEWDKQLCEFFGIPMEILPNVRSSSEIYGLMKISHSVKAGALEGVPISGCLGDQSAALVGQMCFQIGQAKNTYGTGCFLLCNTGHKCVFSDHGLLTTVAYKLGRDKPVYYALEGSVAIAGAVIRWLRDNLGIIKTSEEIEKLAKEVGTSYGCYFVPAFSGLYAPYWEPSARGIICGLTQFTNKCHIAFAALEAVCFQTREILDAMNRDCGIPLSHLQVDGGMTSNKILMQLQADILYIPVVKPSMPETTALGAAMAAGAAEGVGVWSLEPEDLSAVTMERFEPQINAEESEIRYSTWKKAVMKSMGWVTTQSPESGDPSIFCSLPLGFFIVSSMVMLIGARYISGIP
UniProt Q9BXV9: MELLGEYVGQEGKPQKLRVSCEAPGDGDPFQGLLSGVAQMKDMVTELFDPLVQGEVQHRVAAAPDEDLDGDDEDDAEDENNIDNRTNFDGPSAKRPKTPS
UniProt Q96EK6: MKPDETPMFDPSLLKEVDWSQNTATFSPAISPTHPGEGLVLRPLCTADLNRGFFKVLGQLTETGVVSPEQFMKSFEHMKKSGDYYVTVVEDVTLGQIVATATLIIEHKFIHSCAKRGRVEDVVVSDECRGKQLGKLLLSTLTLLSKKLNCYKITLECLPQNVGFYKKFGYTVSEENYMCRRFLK
UniProt Q53EU6: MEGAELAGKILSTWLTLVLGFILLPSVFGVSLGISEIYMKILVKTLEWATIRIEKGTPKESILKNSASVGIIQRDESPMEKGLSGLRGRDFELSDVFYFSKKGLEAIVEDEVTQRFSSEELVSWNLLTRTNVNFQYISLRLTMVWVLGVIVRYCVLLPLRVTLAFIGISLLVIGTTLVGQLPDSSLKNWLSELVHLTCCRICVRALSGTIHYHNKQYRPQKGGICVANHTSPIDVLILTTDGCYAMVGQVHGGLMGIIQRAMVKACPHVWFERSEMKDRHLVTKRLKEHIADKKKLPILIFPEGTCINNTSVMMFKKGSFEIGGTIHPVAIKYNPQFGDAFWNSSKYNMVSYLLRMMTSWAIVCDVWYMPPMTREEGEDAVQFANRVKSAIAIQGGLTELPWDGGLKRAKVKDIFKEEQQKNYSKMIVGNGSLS
UniProt Q08378: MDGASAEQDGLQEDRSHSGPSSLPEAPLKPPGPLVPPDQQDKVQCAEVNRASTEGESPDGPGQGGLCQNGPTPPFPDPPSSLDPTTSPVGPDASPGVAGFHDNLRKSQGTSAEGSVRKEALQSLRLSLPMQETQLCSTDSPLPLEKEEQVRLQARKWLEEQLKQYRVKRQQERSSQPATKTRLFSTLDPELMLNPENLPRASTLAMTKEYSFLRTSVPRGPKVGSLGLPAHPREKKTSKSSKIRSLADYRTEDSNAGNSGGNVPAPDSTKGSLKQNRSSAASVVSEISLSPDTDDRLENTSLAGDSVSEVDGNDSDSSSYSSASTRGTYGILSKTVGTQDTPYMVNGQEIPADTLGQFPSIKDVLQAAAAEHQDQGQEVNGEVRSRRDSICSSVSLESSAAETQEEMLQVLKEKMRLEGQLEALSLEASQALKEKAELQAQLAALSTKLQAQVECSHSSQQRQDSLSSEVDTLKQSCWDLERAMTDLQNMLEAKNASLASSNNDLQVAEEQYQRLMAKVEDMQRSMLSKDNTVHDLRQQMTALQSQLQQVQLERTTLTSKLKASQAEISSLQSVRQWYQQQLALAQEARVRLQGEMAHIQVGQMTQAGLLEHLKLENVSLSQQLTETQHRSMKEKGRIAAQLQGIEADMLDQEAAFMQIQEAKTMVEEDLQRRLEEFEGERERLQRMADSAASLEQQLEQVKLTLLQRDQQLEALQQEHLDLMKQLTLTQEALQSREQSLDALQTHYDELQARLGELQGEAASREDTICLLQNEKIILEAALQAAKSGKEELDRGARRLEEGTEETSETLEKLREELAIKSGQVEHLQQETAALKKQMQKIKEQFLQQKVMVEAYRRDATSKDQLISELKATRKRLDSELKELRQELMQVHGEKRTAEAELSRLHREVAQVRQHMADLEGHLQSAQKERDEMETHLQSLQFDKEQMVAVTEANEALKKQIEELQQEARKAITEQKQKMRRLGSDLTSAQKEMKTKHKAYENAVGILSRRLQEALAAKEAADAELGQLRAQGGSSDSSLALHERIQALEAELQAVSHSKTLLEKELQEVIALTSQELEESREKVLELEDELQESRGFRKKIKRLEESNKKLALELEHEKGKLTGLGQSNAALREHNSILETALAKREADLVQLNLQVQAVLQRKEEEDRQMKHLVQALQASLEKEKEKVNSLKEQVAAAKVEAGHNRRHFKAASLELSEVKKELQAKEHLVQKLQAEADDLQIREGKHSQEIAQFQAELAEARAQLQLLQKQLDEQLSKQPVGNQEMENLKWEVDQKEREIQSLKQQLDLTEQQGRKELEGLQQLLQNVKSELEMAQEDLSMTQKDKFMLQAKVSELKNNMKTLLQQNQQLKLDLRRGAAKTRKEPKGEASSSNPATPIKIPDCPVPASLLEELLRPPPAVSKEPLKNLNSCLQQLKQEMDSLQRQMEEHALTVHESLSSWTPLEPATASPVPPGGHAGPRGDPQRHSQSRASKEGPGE
UniProt Q5VW38: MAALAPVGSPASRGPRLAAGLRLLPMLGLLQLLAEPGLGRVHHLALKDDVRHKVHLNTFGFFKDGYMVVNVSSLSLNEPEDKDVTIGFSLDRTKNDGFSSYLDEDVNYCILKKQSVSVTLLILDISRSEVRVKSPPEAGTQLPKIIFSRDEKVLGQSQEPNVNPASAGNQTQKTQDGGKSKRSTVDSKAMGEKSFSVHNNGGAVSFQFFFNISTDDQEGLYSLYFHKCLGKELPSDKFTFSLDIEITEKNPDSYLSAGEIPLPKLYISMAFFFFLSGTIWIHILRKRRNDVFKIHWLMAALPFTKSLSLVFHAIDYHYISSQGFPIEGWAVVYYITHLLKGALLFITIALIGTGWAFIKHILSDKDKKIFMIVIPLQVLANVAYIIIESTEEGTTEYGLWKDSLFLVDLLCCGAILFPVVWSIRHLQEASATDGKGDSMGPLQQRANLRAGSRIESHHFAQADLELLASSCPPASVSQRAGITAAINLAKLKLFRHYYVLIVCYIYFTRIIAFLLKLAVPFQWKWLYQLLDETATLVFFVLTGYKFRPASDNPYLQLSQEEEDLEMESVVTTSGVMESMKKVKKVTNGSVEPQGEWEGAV
UniProt Q9P2T1: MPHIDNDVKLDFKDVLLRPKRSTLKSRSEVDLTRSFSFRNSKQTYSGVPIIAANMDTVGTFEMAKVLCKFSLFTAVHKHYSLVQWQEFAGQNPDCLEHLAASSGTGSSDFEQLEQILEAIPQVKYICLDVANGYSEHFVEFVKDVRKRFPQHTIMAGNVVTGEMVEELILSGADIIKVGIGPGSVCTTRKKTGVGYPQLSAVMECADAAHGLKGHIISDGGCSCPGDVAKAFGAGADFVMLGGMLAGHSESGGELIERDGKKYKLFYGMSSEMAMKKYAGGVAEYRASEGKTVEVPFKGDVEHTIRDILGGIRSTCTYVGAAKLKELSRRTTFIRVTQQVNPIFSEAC
UniProt O43292: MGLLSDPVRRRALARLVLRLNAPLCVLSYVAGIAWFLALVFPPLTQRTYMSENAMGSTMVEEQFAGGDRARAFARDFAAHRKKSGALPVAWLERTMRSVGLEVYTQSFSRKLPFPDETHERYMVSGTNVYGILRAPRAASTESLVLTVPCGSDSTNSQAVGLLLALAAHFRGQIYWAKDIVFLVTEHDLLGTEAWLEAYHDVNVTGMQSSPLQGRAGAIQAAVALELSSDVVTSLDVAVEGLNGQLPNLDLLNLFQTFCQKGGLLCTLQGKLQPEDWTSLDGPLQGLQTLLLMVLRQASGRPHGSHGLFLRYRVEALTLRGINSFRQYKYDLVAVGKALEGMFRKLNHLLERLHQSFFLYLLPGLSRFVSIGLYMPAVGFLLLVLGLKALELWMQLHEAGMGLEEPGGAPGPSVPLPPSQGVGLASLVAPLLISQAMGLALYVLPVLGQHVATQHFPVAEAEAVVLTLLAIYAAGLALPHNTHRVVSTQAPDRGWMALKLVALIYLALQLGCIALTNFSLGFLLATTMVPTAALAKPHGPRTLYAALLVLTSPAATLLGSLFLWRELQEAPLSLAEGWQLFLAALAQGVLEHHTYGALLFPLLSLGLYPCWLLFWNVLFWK

ibrutinib = compound: C=CC(=O)N1CCC[C@@H](n2nc(-c3ccc(Oc4ccccc4)cc3)c3c(N)ncnc32)C1 [ibrutinib]
Method in brief: as §1

[1] = compound: CC(=O)c1cnc2ccc(-c3cc(Cl)c(O)c(Cl)c3)nc2c1N[C@H]1CC[C@H](CN(C)C)CC1
Method in brief: as §1

ralimetinib = compound: CC(C)(C)Cn1c(N)nc2ccc(-c3[nH]c(C(C)(C)C)nc3-c3ccc(F)cc3)nc21 [ralimetinib]
Method in brief: as §1

[2] = compound: CC(C)(O)CC(=O)NCCn1ccc2ncnc(Nc3ccc(Oc4cccc(C(F)(F)F)c4)c(Cl)c3)c21
Method in brief: as §1

[3] = compound: CC(C)C1=C2N=C(C=C(N2N=C1)NCC3=CC=CC=C3)NCCCCCCN
Method in brief: as §1

[4] = compound: CC(C)C[C@@H](C=O)NC(=O)[C@H](CC(C)C)NC(=O)[C@H](CC(C)C)NC(=O)OCc1ccccc1
Method in brief: as §1

pinometostat = compound: CC(C)N(C[C@H]1O[C@@H](n2cnc3c(N)ncnc32)[C@H](O)[C@@H]1O)[C@H]1C[C@@H](CCc2nc3cc(C(C)(C)C)ccc3[nH]2)C1 [pinometostat]
Method in brief: as §1

[5] = compound: CC1=C(C(CC(=O)N1)C2=CC=C(C=C2)C(F)(F)F)C(=O)NC3=C(C=C4C(=C3)C=NN4)F
Method in brief: as §1

[6] = compound: CC1=C(C2=C(C=C1)C(=O)C3=CC=CC=C3N2CCCN)C
Method in brief: as §1

[7] = compound: CC1=C(C=C(C=C1)NC(=O)C2=CC(=CC=C2)C(C)(C)C#N)NC3=CC4=C(C=C3)N=CN(C4=O)C
Method in brief: as §1

[8] = compound: CC1=C(C=C(C=C1)NC(=O)C2=CC(=CC=C2)N(C)C)NC(=O)C3=CC=C(C=C3)O
Method in brief: as §1

[9] = compound: CC1=CC=C(C=C1)SC2=C3C=C(SC3=CN=C2)C(=O)N
Method in brief: as §1

[10] = compound: CC1=NC(=CC=C1)C2=C(N=C(N2)C(C)(C)C)C3=CC4=NC=CN=C4C=C3
Method in brief: as §1

Nexturastat A = compound: CCCCN(Cc1ccc(C(=O)NO)cc1)C(=O)Nc1ccccc1 [Nexturastat A]
Method in brief: as §1

vemurafenib = compound: CCCS(=O)(=O)Nc1ccc(F)c(C(=O)c2c[nH]c3ncc(-c4ccc(Cl)cc4)cc23)c1F [vemurafenib]
Method in brief: as §1

[11] = compound: CCCS(=O)(=O)Nc1ccc(F)c(C(=O)c2c[nH]c3ncc(Cl)cc23)c1F
Method in brief: as §1

[12] = compound: CCCc1cc(C)[nH]c(=O)c1CNC(=O)c1cc(-c2ccnc(N3CCN(C)CC3)c2)cc2c1cnn2C(C)C
Method in brief: as §1

givinostat = compound: CCN(CC)Cc1ccc2cc(COC(=O)Nc3ccc(C(=O)NO)cc3)ccc2c1 [givinostat]
Method in brief: as §1

barasertib = compound: CCN(CCCOc1ccc2c(Nc3cc(CC(=O)Nc4cccc(F)c4)[nH]n3)ncnc2c1)CCOP(=O)(O)O [barasertib]
Method in brief: as §1

Measured: log2 fold change

GMFG (UniProt O60234)
inactive: IRAK-1-4 Inhibitor I 0.041 | ibrutinib -0.025 | [1] -0.01 | ralimetinib -0.094 | [2] -0.026 | [3] -0.039 | [4] 0.045 | pinometostat -0.006 | [5] -0.044 | [6] -0.079 | [7] -0.05 | [8] 0.005 | [9] 0.062 | [10] 0.071 | Nexturastat A -0.084 | vemurafenib 0.026 | [11] 0.097 | [12] 0.018 | givinostat 0.003 | barasertib 0.016

GNPDA2 (UniProt Q8TDQ7)
inactive: IRAK-1-4 Inhibitor I 0.015 | ibrutinib 0.001 | [1] 0.013 | ralimetinib -0.103 | [2] 0.032 | [3] 0.089 | [4] -0.013 | pinometostat -0.014 | [5] -0.035 | [6] 0.018 | [7] -0.034 | [8] -0.074 | [9] 0.002 | [10] 0.051 | Nexturastat A -0.095 | vemurafenib 0.049 | [11] 0.015 | [12] 0.003 | givinostat -0.027 | barasertib 0.013

GRHPR (UniProt Q9UBQ7)
inactive: IRAK-1-4 Inhibitor I 0.059 | ibrutinib 0.019 | [1] 0.033 | ralimetinib -0.017 | [2] -0.02 | [3] -0.007 | [4] -0.012 | pinometostat -0.004 | [5] -0.018 | [6] -0.008 | [7] -0.053 | [8] 0.027 | [9] -0.005 | [10] 0.018 | Nexturastat A -0.123 | vemurafenib 0.018 | [11] -0.002 | [12] 0.012 | givinostat 0.012 | barasertib 0.01

GLB1L2 (UniProt Q8IW92)
inactive: IRAK-1-4 Inhibitor I 0.006 | ibrutinib -0.062 | [1] 0.01 | ralimetinib -0.011 | [2] 0.051 | [3] 0.109 | [4] 0.045 | pinometostat -0.023 | [5] -0.033 | [6] 0.059 | [7] 0.011 | [8] -0.023 | [9] -0.015 | [10] -0.071 | Nexturastat A -0.007 | vemurafenib -0.017 | [11] 0.01 | [12] 0.019 | givinostat -0.012 | barasertib 0.051

Looked up one by one from above (two):
GMFG (UniProt O60234)
inactive: IRAK-1-4 Inhibitor I 0.041 | ibrutinib -0.025 | [1] -0.01 | ralimetinib -0.094 | [2] -0.026 | [3] -0.039 | [4] 0.045 | pinometostat -0.006 | [5] -0.044 | [6] -0.079 | [7] -0.05 | [8] 0.005 | [9] 0.062 | [10] 0.071 | Nexturastat A -0.084 | vemurafenib 0.026 | [11] 0.097 | [12] 0.018 | givinostat 0.003 | barasertib 0.016

GRHPR (UniProt Q9UBQ7)
inactive: IRAK-1-4 Inhibitor I 0.059 | ibrutinib 0.019 | [1] 0.033 | ralimetinib -0.017 | [2] -0.02 | [3] -0.007 | [4] -0.012 | pinometostat -0.004 | [5] -0.018 | [6] -0.008 | [7] -0.053 | [8] 0.027 | [9] -0.005 | [10] 0.018 | Nexturastat A -0.123 | vemurafenib 0.018 | [11] -0.002 | [12] 0.012 | givinostat 0.012 | barasertib 0.01

(listing goes on)

GRB2 (UniProt P62993)
inactive: IRAK-1-4 Inhibitor I 0.016 | ibrutinib -0.026 | [1] 0.024 | ralimetinib -0.038 | [2] -0.012 | [3] -0.028 | [4] -0.002 | pinometostat -0.027 | [5] -0.022 | [6] -0.045 | [7] 0.075 | [8] -0.008 | [9] -0.021 | [10] 0.014 | Nexturastat A -0.005 | vemurafenib 0.021 | [11] 0.002 | [12] -0.014 | givinostat -0.037 | barasertib 0.008

GPATCH8 (UniProt Q9UKJ3)
inactive: IRAK-1-4 Inhibitor I -0.013 | ibrutinib -0.019 | [1] -0.047 | ralimetinib 0.071 | [2] 0.03 | [3] 0.089 | [4] -0.032 | pinometostat 0.127 | [5] -0.005 | [6] -0.094 | [7] -0.071 | [8] -0.018 | [9] -0.037 | [10] -0.082 | Nexturastat A -0.016 | vemurafenib -0.019 | [11] 0.008 | [12] -0.005 | givinostat 0.044 | barasertib 0.006

GINS4 (UniProt Q9BRT9)
inactive: IRAK-1-4 Inhibitor I 0.002 | ibrutinib 0.046 | [1] 0.01 | ralimetinib -0.009 | [2] 0.017 | [3] 0.006 | [4] 0.063 | pinometostat -0.089 | [5] 0.029 | [6] 0.023 | [7] 0.144 | [8] -0.01 | [9] 0 | [10] 0.04 | Nexturastat A 0.05 | vemurafenib 0.072 | [11] -0.006 | [12] -0.007 | givinostat 0.003 | barasertib 0.042

GNB4 (UniProt Q9HAV0)
inactive: IRAK-1-4 Inhibitor I 0.066 | ibrutinib 0.209 | [1] 0.061 | ralimetinib 0.028 | [2] -0.008 | [3] 0.094 | [4] -0.025 | pinometostat 0.036 | [5] 0.04 | [6] -0.014 | [7] -0.097 | [8] -0.161 | [9] -0.033 | [10] -0.049 | Nexturastat A 0.033 | vemurafenib 0.035 | [11] -0.073 | [12] -0.017 | givinostat -0.129 | barasertib 0.032

GK (UniProt P32189)
inactive: IRAK-1-4 Inhibitor I 0.015 | ibrutinib 0.043 | [1] 0.021 | ralimetinib -0.029 | [2] 0.021 | [3] 0.031 | [4] -0.022 | pinometostat -0.021 | [5] -0.018 | [6] 0.009 | [7] -0.033 | [8] 0.177 | [9] -0.013 | [10] -0.01 | Nexturastat A -0.089 | vemurafenib -0.011 | [11] -0.066 | [12] -0.012 | givinostat -0.021 | barasertib 0.009

GON7 (UniProt Q9BXV9)
inactive: IRAK-1-4 Inhibitor I -0.013 | ibrutinib -0.042 | [1] -0.215 | ralimetinib -0.03 | [2] 0.02 | [3] 0.171 | [4] -0.042 | pinometostat 0.044 | [5] 0.023 | [6] 0.089 | [7] 0.052 | [8] -0.077 | [9] 0 | [10] 0.088 | Nexturastat A 0.053 | vemurafenib 0.119 | [11] -0.097 | [12] 0.038 | givinostat 0.172 | barasertib 0.034

GNPNAT1 (UniProt Q96EK6)
inactive: IRAK-1-4 Inhibitor I 0.076 | ibrutinib 0.088 | [1] -0.021 | ralimetinib 0.002 | [2] -0.026 | [3] 0.13 | [4] -0.031 | pinometostat -0.003 | [5] 0.044 | [6] 0 | [7] 0.002 | [8] 0.024 | [9] 0.028 | [10] 0.043 | Nexturastat A -0.082 | vemurafenib -0.011 | [11] 0 | [12] -0.048 | givinostat 0 | barasertib -0.034

GPAT3 (UniProt Q53EU6)
inactive: IRAK-1-4 Inhibitor I 0.028 | ibrutinib -0.057 | [1] -0.059 | ralimetinib -0.016 | [2] 0.02 | [3] 0.131 | [4] -0.034 | pinometostat -0.039 | [5] -0.134 | [6] 0.008 | [7] -0.023 | [8] 0.064 | [9] -0.026 | [10] -0.015 | Nexturastat A 0.082 | vemurafenib 0.012 | [11] 0.005 | [12] -0.023 | givinostat 0.039 | barasertib 0.061

GOLGA3 (UniProt Q08378)
inactive: IRAK-1-4 Inhibitor I 0.034 | ibrutinib -0.004 | [1] 0.015 | ralimetinib 0.052 | [2] -0.024 | [3] 0.015 | [4] -0.035 | pinometostat 0.01 | [5] -0.012 | [6] 0.04 | [7] 0.003 | [8] 0.008 | [9] 0.042 | [10] -0.03 | Nexturastat A -0.081 | vemurafenib 0.053 | [11] 0.065 | [12] 0.032 | givinostat 0.016 | barasertib 0

GPR107 (UniProt Q5VW38)
inactive: IRAK-1-4 Inhibitor I 0.102 | ibrutinib 0.013 | [1] -0.035 | ralimetinib -0.05 | [2] -0.04 | [3] 0.098 | [4] -0.008 | pinometostat 0.017 | [5] -0.008 | [6] -0.007 | [7] -0.047 | [8] -0.015 | [9] -0.033 | [10] -0.005 | Nexturastat A 0.048 | vemurafenib -0.012 | [11] -0.014 | [12] -0.014 | givinostat 0.187 | barasertib 0.001

GMPR2 isoform 2 (UniProt Q9P2T1)
inactive: IRAK-1-4 Inhibitor I 0.008 | ibrutinib 0.022 | [1] 0.043 | ralimetinib -0.005 | [2] 0.001 | [3] 0.081 | [4] -0.029 | pinometostat -0.049 | [5] 0.009 | [6] 0.001 | [7] -0.032 | [8] -0.019 | [9] 0.003 | [10] 0.02 | Nexturastat A -0.098 | vemurafenib -0.03 | [11] -0.013 | [12] -0.034 | givinostat -0.041 | barasertib -0.01

GPAA1 (UniProt O43292)
inactive: IRAK-1-4 Inhibitor I 0.016 | ibrutinib -0.042 | [1] 0.03 | ralimetinib 0.018 | [2] -0.015 | [3] -0.029 | [4] -0.043 | pinometostat 0.056 | [5] 0.043 | [6] 0.002 | [7] -0.01 | [8] 0.003 | [9] 0.028 | [10] -0.009 | Nexturastat A -0.024 | vemurafenib -0.038 | [11] -0.057 | [12] 0.042 | givinostat 0 | barasertib 0.023

— the supplement of paper PMC10849652
